Test results from paper PMC7819943, “Rice protein-binding microarrays: a tool to detect cis-acting elements near promoter regions in rice”.
Some of the results follow.

What follows are sequences tested against T1, OsSMF1 (Oryza sativa, UniProt Q6ZLB0 1-436) (assay: protein-binding microarray (RPBM); PBS, 2% BSA, 51.3 ng/ul salmon testes DNA, 50 uM zinc acetate, 200 nM TF, 25 C, 1 h; high values mean tight binding). Settings: protein: recombinant; tags: N-terminal polyhistidine and DsRed monomer fusion (pET32a); chain copies: 2; label: CyDye5-dUTP incorporated in the synthesized complementary strand; 3' TTTTT single-stranded linker to array surface; dsDNA, one strand shown.
T1 sequence: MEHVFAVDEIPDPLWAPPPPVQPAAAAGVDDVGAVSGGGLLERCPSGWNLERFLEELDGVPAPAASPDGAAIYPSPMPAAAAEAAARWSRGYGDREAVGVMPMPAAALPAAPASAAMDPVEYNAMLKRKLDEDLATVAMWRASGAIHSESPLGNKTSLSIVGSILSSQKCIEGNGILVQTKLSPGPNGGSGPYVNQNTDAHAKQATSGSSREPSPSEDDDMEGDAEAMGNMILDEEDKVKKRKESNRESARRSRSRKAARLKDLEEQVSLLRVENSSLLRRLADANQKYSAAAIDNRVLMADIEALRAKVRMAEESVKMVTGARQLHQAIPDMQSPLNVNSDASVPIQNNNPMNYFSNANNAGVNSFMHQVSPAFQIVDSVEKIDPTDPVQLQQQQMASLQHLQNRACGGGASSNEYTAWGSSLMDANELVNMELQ
Outline: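 In PBS with 2% BSA, salmon testes DNA and 50 µM zinc acetate, 200 nM protein was incubated on a custom Agilent array at 25 °C for 1 h and then washed off. The array had been made double-stranded by primer extension with Cy5-dUTP and blocked with 2% BSA. The proteins were transcription factors fused N-terminally to polyhistidine and DsRed, expressed in E. coli BL21-CodonPlus and purified on Ni–NTA. The binding signal is per-feature fluorescence intensity (arbitrary units) from an Axon 4000B scanner.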

Sequence	binding signal
TCGAGGAGTGGATGGACGGATGGGTGGGTCATCACTGGTCCGGAGTCACCTAGTGCAG	3480 fluorescence intensity (a.u.)
CCCCTCTGTTTCAGGTTATAAGATGAGTTGGCTTTGATCACGGAGTCACCTAGTGCAG	3390 fluorescence intensity (a.u.)
GACTAATGAGGTACTTGTCAATTGTCATCAGATGTGCCAGCGGAGTCACCTAGTGCAG	3450 fluorescence intensity (a.u.)
TCCACGCCCCGTCCGCCTCGCTCTCACCCTGCCCCGTCCGCGGAGTCACCTAGTGCAG	3240 fluorescence intensity (a.u.)
GCCGCTCATGACGTTCATCTTCGGCGACGTCATCAACGCCCGGAGTCACCTAGTGCAG	8990 fluorescence intensity (a.u.)
ATTTCATAAAACTGCACATTCTGGGGTTCAAGTTGCAGAACGGAGTCACCTAGTGCAG	3170 fluorescence intensity (a.u.)
ACGTATACGTGACACCCTCTCTCGCACGATCAGTACTGTACGGAGTCACCTAGTGCAG	3480 fluorescence intensity (a.u.)
CTCTCTCCCTCGATACACGTGCCTTTGAGTACCTTTTAGTCGGAGTCACCTAGTGCAG	3540 fluorescence intensity (a.u.)
GCCGCCATCATCCACCGGAGGCGCCGCCGGGCGCACGCGGCGGAGTCACCTAGTGCAG	3460 fluorescence intensity (a.u.)
CATGTCAGTGTCACTGACCATCTTAGCTAGCAGGACCGTGCGGAGTCACCTAGTGCAG	3660 fluorescence intensity (a.u.)
GGAGGAAGGCTACCCTGTTGTCGACTACGAGTCAGACCTTCGGAGTCACCTAGTGCAG	3980 fluorescence intensity (a.u.)
GGATCAACGTGACATTAGATTTGAATCTAGCTAGCTGGAACGGAGTCACCTAGTGCAG	20100 fluorescence intensity (a.u.)
CCGTACTTATCTACTTATCATCTACGTGTACCGTGTTTATCGGAGTCACCTAGTGCAG	10200 fluorescence intensity (a.u.)
GCGAAGGAAGGAAAAGAAAGCACCGTATGACGTGGAAGGACGGAGTCACCTAGTGCAG	11800 fluorescence intensity (a.u.)
GGAGTTAGTTCGGAGGTGATTATGGGGTGACGTATATTTTCGGAGTCACCTAGTGCAG	4370 fluorescence intensity (a.u.)
GTAAGTACACGATCGATCACCTCGCCGCCGCCGCCGCCGCCGGAGTCACCTAGTGCAG	3830 fluorescence intensity (a.u.)
ACGCTGCTCCATACAAGCGAGCGCGACTTTGAGGTCGCCACGGAGTCACCTAGTGCAG	3360 fluorescence intensity (a.u.)
ACTCCCGGTCCCATGTCACCGACACATGTACATCTCAGCACGGAGTCACCTAGTGCAG	4500 fluorescence intensity (a.u.)
TCGGCAGCGTTCGCGAGCGGATAAGGAGTGGCGGTGGTGGCGGAGTCACCTAGTGCAG	3340 fluorescence intensity (a.u.)
TTCCTCGCCAACGTAAGCCAATAACATTGTGACGCAATCTCGGAGTCACCTAGTGCAG	5820 fluorescence intensity (a.u.)
CCTGCATCTCCATCATTTAGTGCGTGGAATGCTTCTCCAGCGGAGTCACCTAGTGCAG	3520 fluorescence intensity (a.u.)

Sequence	binding signal
CGCTCGCTAGTGGTGGAGGCAGGCAAGACACGTCACTAGCCGGAGTCACCTAGTGCAG	19400 fluorescence intensity (a.u.)
TCTAGCATTGCCCAAATTCATATTCATTAACATATATATGCGGAGTCACCTAGTGCAG	3930 fluorescence intensity (a.u.)
CGCGTGGAGCTCACGGATGGGCCACACGTGGACGGTCGAGCGGAGTCACCTAGTGCAG	6700 fluorescence intensity (a.u.)
GGCAGATATTAGATAGAATGAAAGTTGGGGAATCAATCAGCGGAGTCACCTAGTGCAG	3300 fluorescence intensity (a.u.)
TGAAGAGCCTTAGTCATAGTTGTACCGTAGTATTATTTGTCGGAGTCACCTAGTGCAG	3840 fluorescence intensity (a.u.)
CCCACGCCGCGGGGCCACGCTTCGTTACGCCCGCTCATATCGGAGTCACCTAGTGCAG	4420 fluorescence intensity (a.u.)
GATGATGATGATGATGATGATGAGAAGGTGGTGCCGCCGCCGGAGTCACCTAGTGCAG	4280 fluorescence intensity (a.u.)
TCACCCTCTCCTATTCTCTCTCTTCGCCACGCTCTCATCCCGGAGTCACCTAGTGCAG	3830 fluorescence intensity (a.u.)
ATTATACAGATTACGTGTAAATTGCGAGACGAATCTTTCACGGAGTCACCTAGTGCAG	4060 fluorescence intensity (a.u.)
GAAACTCGTGGCTGCACTTATTTTAGAACGAAGGGAGTAGCGGAGTCACCTAGTGCAG	6360 fluorescence intensity (a.u.)
TTGCTATGGCCGCGAGGTTGCTTACTCATGGAGGAAAGCTCGGAGTCACCTAGTGCAG	4430 fluorescence intensity (a.u.)
TTCTTCCGCGCCGACCTCTCCGTCCGCCCCGTCGACGAGTCGGAGTCACCTAGTGCAG	3490 fluorescence intensity (a.u.)
AATCCTCCGCCATTCCCCGCATAGCGCCCCATGCCCCTACCGGAGTCACCTAGTGCAG	23300 fluorescence intensity (a.u.)
AGGAAAAGGGGTTATACACGTGGTGATACTCACTTGACGGCGGAGTCACCTAGTGCAG	8040 fluorescence intensity (a.u.)
TGGCCCATCAGAGTCAGAGCCGCCGCCGACTCCAGATTCCCGGAGTCACCTAGTGCAG	3220 fluorescence intensity (a.u.)
AGAGAGAGAGAGAGAGAGAGAGAGCTCAGGATCGACGAGACGGAGTCACCTAGTGCAG	16900 fluorescence intensity (a.u.)
ATCGGGCTCCGCCACTGGATGTGGCTGAAAATATTTGACGCGGAGTCACCTAGTGCAG	3600 fluorescence intensity (a.u.)
ATATGGCCTTCGGTGGTATCCACGTAGAGCTTTACGTTAACGGAGTCACCTAGTGCAG	4810 fluorescence intensity (a.u.)
TAGCAAGAACGCCTCGTTTCATAGCATATGCATTTGTCTGCGGAGTCACCTAGTGCAG	23200 fluorescence intensity (a.u.)
TCTCGCTAACGCCTATAGTCCATGACGTTGTCAGCCGTCCCGGAGTCACCTAGTGCAG	6100 fluorescence intensity (a.u.)
CGATTTGATTCGCTGCTGACGTGGCACCCACCGCGTAAAACGGAGTCACCTAGTGCAG	5770 fluorescence intensity (a.u.)

Two entries from above, in markdown:

| Sequence | binding signal |
| --- | --- |
| GGAGGAAGGCTACCCTGTTGTCGACTACGAGTCAGACCTTCGGAGTCACCTAGTGCAG | 3980 fluorescence intensity (a.u.) |
| GGATCAACGTGACATTAGATTTGAATCTAGCTAGCTGGAACGGAGTCACCTAGTGCAG | 20100 fluorescence intensity (a.u.) |
